In US20250091911A1, “NANOFILTRATION SYSTEM AND METHOD INCLUDING PRETREATMENT WITH GREEN SORPTION MEDIA” (University of Central Florida Research Foundation, Inc., priority 2023, published 2025):

Assays:
[1] = Control: nanofiltration without green sorption media pretreatment
Description: (§1) The water samples were collected from the same site of the C-23 canal during both the dry and wet seasons. However, only wet season water samples were used in the experiment. The water samples were analyzed for both long-chain (PFOA and PFOS) and short-chain (Perfluorobutanoic acid [PFBA] and Perfluorobutanesulfonic acid [PFBS]) PFAS following the modified EPA 537.1 method (Shoemaker & Tettenhorst, 2020). Through this method, an aliquot of a 250 mL water sample containing analytes and internal standards is extracted via solid phase extraction. The extracted analytes and internal standards are then eluted with methanol and ammonium hydroxide in methanol solvent. Then the eluted samples are dried with nitrogen and reconstituted to 1 mL volume with a buffer solution. The samples are then injected into a C18 liquid chromatography column, and the PFAS compounds are separated by a gradient of pure methanol and 20 mM ammonium acetate. Finally, the eluted compounds are detected, and their concentrations are measured via tandem mass spectrometry. The method detection limits (MDLs) for PFBA, PFBS, PFOA, and PFOS were 0.5 ng·L^−1, 2 ng·L^−1, 0.5 ng·L^−1, and 1 ng·L^−1, respectively. The concentration of calcium ion (Ca^2+) was analyzed at Eurofins Flowers's Chemical Laboratories (Altamonte Springs, Florida) following EPA method 6010D using inductively coupled plasma optical emission spectroscopy (MDL=0.096 mg·L^−1). Total organic carbon (TOC) and dissolved organic carbon (DOC) were measured using a TOC analyzer following EPA method 415.3.
(§2) Water samples collected from the C-23 canal were first fortified with PFOS and PFOA and then used as influents to the pretreatment column containing one of the two green sorption media. Note the water samples were not fortified with PFBA and PFBS. The green sorption media effluent served as the feedwater for the nanofiltration unit of the proposed water treatment system. The nanofiltration membrane unit without any green sorption media-based pretreatment served as the “control.” The integration of a green sorption media (CPS or ZIPGEM) with crossflow nanofiltration is herein referred to as a water treatment system, denoted as CPS-nanofiltration or ZIPGEM-nanofiltration. The CPS and ZIPGEM column influents and effluents and nanofiltration permeates were analyzed for both long-chain (PFOS and PFOA) and short-chain (PFBS and PFBA) PFAS. FIG. 3 presents the green sorption media-nanofiltration hybrid treatment scheme.
A bench-scale crossflow filtration setup was used in these experimental methods. The experimental setup consisted of a feed tank, a centrifugal pump, three CF042 membrane cells connected to pressure gauges, check valves, and flowmeters. A recirculating chiller was used for regulating the temperature at 20° C. […]

[2] = Fixed-bed column pretreatment of spiked C-23 canal water with CPS
Description: as §1, §2
C-23 canal water was stored in a walk-in refrigerator at […] after collection. For the pretreatment experiment, a total of 60 L of water was used as influents to the CPS and ZIPGEM columns. Although the raw water was spiked with 70 ng·L^−1 of PFOA and PFOS each, the short-chain PFAS (PFBA, PFBS) were at their indigenous concentrations. A peristaltic pump was used to deliver the water to the columns at a constant flowrate of 14 ml·min^−1. Three columns (triplicate) with 3 ft length and 4-inch diameter containing 2,600 ml of media were set up for each media, and all samples were analyzed in triplicate (FIG. 4). The fixed-bed column experiments were run for more than 48 h, and effluents were taken at different time intervals to be used as feedwaters for the nanofiltration treatment that followed. […] At least 5 L of column effluent were collected to be used as the nanofiltration feed, and the stated effluent at 9 h for CPS was collected from 0 h until 9 h, whereas effluent at 30 h for ZIPGEM was collected from 9 h until 30 h. The collected effluents from the column study were stored in a refrigerator until they were used for the nanofiltration experiment. FIG. 4 illustrates the experimental setup for the pretreatment CPS and ZIPGEM process.
The average removal efficiencies of each media pretreatment were calculated based on PFAS concentrations in the influents and effluents of triplicate columns, as disclosed in TABLE 5. […]

SMILES	PFAS concentration, Control Effl. [1] [ng/L]	PFAS concentration, column effluent (Effl.) ([2]; CPS Col 1, effluent @ 9 h) [ng/L]	PFAS concentration, column effluent (Effl.) ([2]; CPS Col 2, effluent @ 9 h) [ng/L]	PFAS concentration, column effluent (Effl.) ([2]; CPS Col 3, effluent @ 9 h) [ng/L]
O=C(O)C(F)(F)C(F)(F)C(F)(F)F [PFBA, Perfluorobutanoic acid]	2.50	6.0	5.8	5.4
O=S(=O)(O)C(F)(F)C(F)(F)C(F)(F)C(F)(F)F [PFBS, Perfluorobutanesulfonic acid]	3.90	4.4	4.0	4.1
O=C(O)C(F)(F)C(F)(F)C(F)(F)C(F)(F)C(F)(F)C(F)(F)C(F)(F)F [PFOA, Perfluorooctanoic acid]	12.67	3.8	14	11
O=S(=O)(O)C(F)(F)C(F)(F)C(F)(F)C(F)(F)C(F)(F)C(F)(F)C(F)(F)C(F)(F)F [PFOS, Perfluorooctanesulfonic acid]	11.07	0.0	0.0	0.0
